Laboratory results from PMC12370185.
The list shows a part of the results. For part of these data: At the low end of the ranking the order means little.

Tests used:
Conditions in all cases: 10 mM Tris-Cl pH 7.5, 50 mM NaCl, 1 mM DTT, 0.25 mg/ml BSA, 2 mM MgCl2, 0.025% Nonidet P-40, 5% glycerol; 28 nM nucleosome library; 10 min on ice then 30 min …; high values mean tight binding; double strand, one strand shown
KLF4 + histone octamer = experiment: EMSA with sequencing
OCT4 + histone octamer = experiment: EMSA with sequencing
SOX2 + histone octamer [1] = experiment: EMSA with sequencing
[2] = tested on: c-MYC + MAX + histone octamer; experiment: EMSA with sequencing
SOX2 + histone octamer [3] = experiment: Pioneer-seq (competitive nucleosome EMSA with sequencing)
[4] = tested on: c-MYC + MAX + histone octamer; experiment: as above

Row | Sequence | binding signal (log2 relative supershift) (KLF4 + histone octamer) | binding signal (log2 relative supershift) (OCT4 + histone octamer) | binding signal (log2 relative supershift) (SOX2 + histone octamer [1]) | binding signal (log2 relative supershift) [2] | binding signal (log2 relative supershift) (SOX2 + histone octamer [3]) | binding signal (log2 relative supershift) [4]
1 | GATGGACCCTATACGCGGCTGTCTTTTTGAACCCACCTTCCATTGGAGGCAAAATTAAACAGTCTGTGCACAGTCATAGGGACATGACATGCATGTGAAAGCGGCAAAGAGAGGGCAACATACTAACTAGCTCAGACCCAGAAATGGGTGCCCTTTGAAATGAGGCACTTCTGGGAGCTCCTACTGCATTTGAAGAAGAGGAGAAATCAATGCCAGTCGGATAGTGTTCC | 2.01 | 0.412 | 0.87 | 0.0437 |  | 
2 | GATGGACCCTATACGCGGCCCTAAGCCATGCTCTTTGTTCCTTTACTTTTGCACATGCTGATTCTTCTGCCTAGACACTCCTCCCATCCACACCCCTCCCTAAATCCCCTTCATCTGCATGCACTCATGTACTCTTACATAACTTGCAATATGCTAGTCATCTTTCAATATCCAGCACAGCTGCTGCTGTTACCATTTCACTAAAGTCACTGCCAGTCGGATAGTGTTCC | 0.373 | 0.353 | 1.03 | 0.677 |  | 
3 | GATGGACCCTATACGCGGCTATGTGTGAGAATGTGTAGTTGTGTGCACAAGTGTGTGGGTGTCAGAGAGTGTGTGTGAGTCTGGTGTGTGCATGCATGTGACTCCATGTGGTGTGTGCATGCATGCGTGGGTGTGCCATGGGTGGAGTGTGTATGCAGGTGTATGAATATGTCCATGTGTGTGAGGGTGAGTCTGTGGTGCGTTTGTGCATGCCAGTCGGATAGTGTTCC | 1.86 | 0.0555 | 0.525 | 0.823 |  | 
4 | GATGGACCCTATACGCGGCGTGTGTGTGTTAGGGGTTAGTGAGTGTGCTGGGCAGGTGGGGTGGTGCTTGAGGTTCTCCCTGCCGAGTGTGCACATGGCTGGGCGTGTGTGTGTGTGTGCGTGTGTGTGTGGTGGGAATGACAGTGGATCTGCCTCCAAGTGTGCCCACACAAGTGCCGGGGCTGTGCAGTCCATGCCTGTGTGAGGTGCTGCCAGTCGGATAGTGTTCC | 1.43 | 0.58 | 0.608 | 1.49 |  | 
5 | GATGGACCCTATACGCGGCGACATTAGTTATTGACTTCCTGCTATGGAGATAGGTATTTGGCTCTCTCATCCACTGTCCTCCACACTCTTTAGCCACTCAGCAACACAAAGGCCTTTCTGCCCATCCCGCCAGAGTATGTTGTAACATAGCTTTTTGCTAAACTGTATTTAACATTTATGACAATAAGTATTCACATTCGAGCCATGTAGTGCCAGTCGGATAGTGTTCC | 0.0328 | 0.459 | 1.5 | 0.0905 |  | 
6 | GATGGACCCTATACGCGGCCCTGCTCCTTCAATGGCCAGCCTAAGTATCTCCACCTCTAGGATGCCTCCCTGTCCTCCCAGTGCTCTCTGATGCCCCTCCCTCTGGGCTCCCAGAGCACCCTGGAATGTGTCTATGAGAGAATTTAGGGTCCAGAACTGTGATAAGGATGTAGCACAGTGGCAGTGAGCATAGGCGCTGCCAGTTACAGGTGCCAGTCGGATAGTGTTCC | 2.17 | 0.0889 | 0.257 | 0.598 |  | 
7 | GATGGACCCTATACGCGGCGAATTAAGCTTTGGAATTGCAAACGTCAGAATTGAGACTGCATTGATAAGCAGAAAAGCAAATAATGCTGACCTGAGATCTTCAACCTTCTCTCCTGTGGCTTTCATGAGTCTTGAAAGGAGACTGGTGCTTACTAAGACCACTGATTTGTACTAAGGAGCGTTTGCATCTGGTGTCTTCCCTTGTGCTGATGCCAGTCGGATAGTGTTCC | 0.595 | 0.0297 | 0.811 | 0.0999 |  | 
8 | GATGGACCCTATACGCGGCAAAGCATGATTCTCGCCATCTACACGACGCTCTTCCGATCTAATTTATGTTTGTTAGCGTTATACTATTCTAATTCTTTGTTTCGGTGGTATTGTTTATTTTGTTCCTTTGTGCGTTCAGCTTAATGCCTAACGACACTCGGAGATCGGAAGAGCACACGTGATGAGGTTATTGAACAGCGACTTTACCGGTGCCAGTCGGATAGTGTTCC | 0.4 | 0.282 | 0.628 | 1.04 |  | 
9 | GATGGACCCTATACGCGGCTCTACTCCCCTGGCACATAGACAGGGTTCAGTAACTGCATGTTAAATCAGCGGTGATGATGATGATGGTGACAATGACAGTTGCAGCAGCTATCCAGCACATGGCCCTTGCCATGGGTGTGGCCACAGTGCTAAGAATCTTCATTTAACTCTTTTAACCCTCACGGAAATCCTCGCAGGTGTGTCCTGTTGTGCCAGTCGGATAGTGTTCC | 2.53 | 0.332 | 0.436 | 0.408 |  | 
10 | GATGGACCCTATACGCGGCTACAGTTGAATCCAAAAGCATTTATAGGAAACAAGTGAGGGCTGGGCATCTCATTTGCATAATGCATGAATTTCTGGTAGCTCCACCCCATCCTCCTAATGCACATGTGGACCCTTAGCTTGAGTTACTTCATATTGCTTTGCTCCCCTTACTGCACATGTATCAGGGGATGAAATTTTCCATTGTGGGCATGCCAGTCGGATAGTGTTCC | 1.65 | 1.38 | 1.29 | 0.078 |  | 
11 | GATGGACCCTATACGCGGCTTCTCTTTACAGCAACCTGTGAAATAGAGATGGGGGTGGAAGAATGGAGATTGCATAGGGCTGGAGCTATTGACACTGAGAGCATCAGCTCAGCCAAAGAATCTTTTTCCTCTGGCATTTCCTGAAGGACAGGCAGACTCTTTGTTATGTGCATACATCAATTCACACAAGTGTGAGCACATACCCTTTGATGCCAGTCGGATAGTGTTCC | 1.3 | 0.791 | 1.63 | 0.0205 |  | 
12 | GATGGACCCTATACGCGGCTGCCTTTGTCCTTTGGTGGCCACGATATCTTCATTGGAAGCGTCTATTGCTGTCATTATTTCTAATTGAAATCATCCTCTACCTCCACACCCTTCCACGAAGGAAACATGGCTTTTATCTTTGTCTTGCACATGCACACAACAGAGGGAGGGAGAATAATTTGCTATTTGCACTTTCAATAATAAAATAGCTGCCAGTCGGATAGTGTTCC | 1.71 | 0.749 | 1.73 | 0.364 |  | 
13 | GATGGACCCTATACGCGGCCTTGGGTGTGGTTAGACAAGGCCTCATCATGCATGCCATGTGCCCGTGGCAGCCAGAGAAGCCCACAGGGATGGAGAAGCTTGCTGGCACATGGGTGTGTCTGCTGAGGTCCTAGGGTGGAGGGGAGGTGTGGCAATGCACAAGGTGCAGGCAGGAGACGATTCGAGTCACTCAGGCTCCCTGGTCCTTGCTGCCAGTCGGATAGTGTTCC | 2.67 | 0.543 | 0.382 | 1.47 |  | 
14 | GATGGACCCTATACGCGGCTCTTTCCTTCCCCGTCTCTTTCCCCAGGTGTTAGCCCAGTATCCCAGTCTGAAGACGTCCGCCCTTTATCTTTCACAGGGATTCCCTTGATAAATCCCCTGCAAGTCTGAGCCTGTCCTGGCATCTGCTTCCCAGAGGATCCAAATTAACACAGATAACTTCCATTTTGTAGGATGAGATAATGAAGTCTATGCCAGTCGGATAGTGTTCC | 1.36 | 0.411 | 1.13 | 0.164 |  | 
15 | GATGGACCCTATACGCGGCAAAAAATATCCCATGCATCCGCCCTGTGTTCTCTTTCAGATGATAATCCCGCTTCCTTTTTCACTGAGAAAACAGAAGCAATCAGAATAGGCATTGACATACACCAGCTACCACATCTACTGATATATTGGTATGTGTGCCTTGTTCTTAGCAGTCTGGGGCTATGAATGACCTGTTAGCCTCTGAGCTGATGCCAGTCGGATAGTGTTCC | 2.43 | 0.0607 | 0.778 | 0.296 |  | 
16 | GATGGACCCTATACGCGGCTAGTAGAGACGGGTTTCACAGTGTTAGCCAGTATGGTCTCGATCTCCTGACCGACCTTGTGATCCACCCACCTCGGCCTCCCAAATTGCTGCAATTACAGGCATGAGCCACCACGCCTGGCTGGGGCAGGTAACAATTATAAGTTATGCTCAACTAAACCTTTAGTTTTAAGATGTTTTATATTCTGTATATGCCAGTCGGATAGTGTTCC | 0.794 | 0.231 | 0.942 | 0.625 |  | 
17 | GATGGACCCTATACGCGGCTTCACTTCGTGTGTTAAAGTAATTCCAGAGAGAAAGGGACTAGACTAGGGAGACACCCAGCCCAGGCAGTGACTTGCAAATAATGGAAGTATGGCCACATCAGCCCCTAATTTACCTTTGATTGTCTCCCTATTTCTGACTCTCTCTCTTACCCACTTGATATATACAACCGTGTTTCTTTCCAATCCTGATGCCAGTCGGATAGTGTTCC | 0.655 | 0.07 | 0.409 | 0.155 |  | 
18 | GATGGACCCTATACGCGGCTAGCTGTGTTATTCCTTAACTGCATGAACATTGGCTGGACAAAGAACCTAAGTTTCTGCCTCTGTAAAATGGGCATAATAAAGTGTCACCCTCCCTGATGGTTCATGTGGATGAATGAGCGCACACGTTGTGACTATGTGAGTTGCAGAGCACTACATCCTTATGGAGAAAAGATCATAAAGCCTTATCAGTGCCAGTCGGATAGTGTTCC | 0.203 | 0.0687 | 1.25 | 0.0619 |  | 
19 | GATGGACCCTATACGCGGCCATAGTGTTGTTATAAGGGTTAGACTATCATGCATCATTAGCACCTGGCCTAGTGTGAGCCCATAAATGGAATTCAGTGAATGCTTCTTCTGCCTCCCTTTGTGCTAAGAGATGAGTTGCCTTGCCCAGGTCATCAGCTTATGCATAGCAAAGACAAGGCAGAAACTTTAATGTTTAAACCTGAAAATCCATGCCAGTCGGATAGTGTTCC | 1.18 | 0.231 | 0.856 | 0.176 |  | 
20 | GATGGACCCTATACGCGGCAACATACATATGCATGCATATGCACAGTCACAGGTGCACGTGCAAGACCCGATGCGCATACATGCACACGTGCACAAACAGGCACACACACGCACGTGCACACACCCACCCACACATGTATGCACATACAAGCACAAACACGTGCATGCCCACACACACATGCACACACACGTACACACACACACGCGCACTGCCAGTCGGATAGTGTTCC | 0.138 | 0.477 |  | 1.47 | -0.149 | 
21 | GATGGACCCTATACGCGGCTATGAACTTTTCTCTGTTATGGTTCATTCTGGGAGCGCTGCTGGTGGTCATTATTATGCATGTATAAAGTCATTCAGTGATGAGCAGTGGTACAGCTTCAATGATCAACATGTCAGCAGGGTAAGGAGGTGTCCTTTAAGATTATTACTCTGAAAGGTGGGAGTAAGGATGTTTCTAAACAACAGTAAAGTTGCCAGTCGGATAGTGTTCC | 1.57 | 0.274 | 0.682 |  |  | -0.0041

6 successive records already listed:
Row | Sequence | binding signal (log2 relative supershift) (KLF4 + histone octamer) | binding signal (log2 relative supershift) (OCT4 + histone octamer) | binding signal (log2 relative supershift) (SOX2 + histone octamer [1]) | binding signal (log2 relative supershift) [2] | binding signal (log2 relative supershift) (SOX2 + histone octamer [3]) | binding signal (log2 relative supershift) [4]
7 | GATGGACCCTATACGCGGCGAATTAAGCTTTGGAATTGCAAACGTCAGAATTGAGACTGCATTGATAAGCAGAAAAGCAAATAATGCTGACCTGAGATCTTCAACCTTCTCTCCTGTGGCTTTCATGAGTCTTGAAAGGAGACTGGTGCTTACTAAGACCACTGATTTGTACTAAGGAGCGTTTGCATCTGGTGTCTTCCCTTGTGCTGATGCCAGTCGGATAGTGTTCC | 0.595 | 0.0297 | 0.811 | 0.0999 |  | 
8 | GATGGACCCTATACGCGGCAAAGCATGATTCTCGCCATCTACACGACGCTCTTCCGATCTAATTTATGTTTGTTAGCGTTATACTATTCTAATTCTTTGTTTCGGTGGTATTGTTTATTTTGTTCCTTTGTGCGTTCAGCTTAATGCCTAACGACACTCGGAGATCGGAAGAGCACACGTGATGAGGTTATTGAACAGCGACTTTACCGGTGCCAGTCGGATAGTGTTCC | 0.4 | 0.282 | 0.628 | 1.04 |  | 
9 | GATGGACCCTATACGCGGCTCTACTCCCCTGGCACATAGACAGGGTTCAGTAACTGCATGTTAAATCAGCGGTGATGATGATGATGGTGACAATGACAGTTGCAGCAGCTATCCAGCACATGGCCCTTGCCATGGGTGTGGCCACAGTGCTAAGAATCTTCATTTAACTCTTTTAACCCTCACGGAAATCCTCGCAGGTGTGTCCTGTTGTGCCAGTCGGATAGTGTTCC | 2.53 | 0.332 | 0.436 | 0.408 |  | 
10 | GATGGACCCTATACGCGGCTACAGTTGAATCCAAAAGCATTTATAGGAAACAAGTGAGGGCTGGGCATCTCATTTGCATAATGCATGAATTTCTGGTAGCTCCACCCCATCCTCCTAATGCACATGTGGACCCTTAGCTTGAGTTACTTCATATTGCTTTGCTCCCCTTACTGCACATGTATCAGGGGATGAAATTTTCCATTGTGGGCATGCCAGTCGGATAGTGTTCC | 1.65 | 1.38 | 1.29 | 0.078 |  | 
11 | GATGGACCCTATACGCGGCTTCTCTTTACAGCAACCTGTGAAATAGAGATGGGGGTGGAAGAATGGAGATTGCATAGGGCTGGAGCTATTGACACTGAGAGCATCAGCTCAGCCAAAGAATCTTTTTCCTCTGGCATTTCCTGAAGGACAGGCAGACTCTTTGTTATGTGCATACATCAATTCACACAAGTGTGAGCACATACCCTTTGATGCCAGTCGGATAGTGTTCC | 1.3 | 0.791 | 1.63 | 0.0205 |  | 
12 | GATGGACCCTATACGCGGCTGCCTTTGTCCTTTGGTGGCCACGATATCTTCATTGGAAGCGTCTATTGCTGTCATTATTTCTAATTGAAATCATCCTCTACCTCCACACCCTTCCACGAAGGAAACATGGCTTTTATCTTTGTCTTGCACATGCACACAACAGAGGGAGGGAGAATAATTTGCTATTTGCACTTTCAATAATAAAATAGCTGCCAGTCGGATAGTGTTCC | 1.71 | 0.749 | 1.73 | 0.364 |  | 
